PubChem BioAssay AID1259254 | NCATS, 2017
Here is a random part of about 59,000 deposited reagents. About 1,550 of them (2.6%) count as active. 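G2 share is only a proxy for re-replication; each gene was hit by three separate siRNAs, and active genes were retested.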 The numbers tell different reagents against one gene apart. Not all columns of the deposit are shown. Not stated in the record: the amount of reagent.

- Purpose: 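Gene knock-downs that lead to re-replication, shown by excess G2 DNA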 (primary screen)
- Cell system: human HCT116 colorectal cancer cells
- Reagents: single siRNA against human genes
- Time to read-out: 3 days
- Detection: 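Imaged Hoechst DNA stain sorts each cell into a cycle phase by DNA amount; per plate, G2 fraction set to 0% for non-targeting and 100% for GMNN siRNA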
- Direction: G2 robust z-score and G2 cells, % of GMNN control: higher = more G2 cells, more excess DNA replication
- Call rule: 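Active siRNAs have a G2 robust z of 5 or more median absolute deviations over the median, which in these data means about 38% or higher of GMNN control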

IGSF5 #1
- G2 robust z-score: 0.157
- G2 cells, % of GMNN control: 4.07
- Outcome: inactive

IGSF5 #2
- G2 robust z-score: 0.507
- G2 cells, % of GMNN control: 6.53
- Outcome: inactive

IGSF5 #3
- G2 robust z-score: 0.269
- G2 cells, % of GMNN control: 4.86
- Outcome: inactive

SCGB1D4 #1
- G2 robust z-score: -0.156
- G2 cells, % of GMNN control: 1.87
- Outcome: inactive

SCGB1D4 #2
- G2 robust z-score: -0.218
- G2 cells, % of GMNN control: 1.43
- Outcome: inactive

SCGB1D4 #3
- G2 robust z-score: -0.874
- G2 cells, % of GMNN control: -3.18
- Outcome: inactive

USP43 #1
- G2 robust z-score: 1.43
- G2 cells, % of GMNN control: 13
- Outcome: inactive

USP43 #2
- G2 robust z-score: 0.651
- G2 cells, % of GMNN control: 7.55
- Outcome: inactive

USP43 #3
- G2 robust z-score: 4.4
- G2 cells, % of GMNN control: 33.9
- Outcome: inactive

HACD1 #1
- G2 robust z-score: -0.638
- G2 cells, % of GMNN control: -1.52
- Outcome: inactive

HACD1 #2
- G2 robust z-score: -0.97
- G2 cells, % of GMNN control: -3.85
- Outcome: inactive

HACD1 #3
- G2 robust z-score: -0.871
- G2 cells, % of GMNN control: -3.16
- Outcome: inactive

LINC02667 #1
- G2 robust z-score: -0.29
- G2 cells, % of GMNN control: 0.928
- Outcome: inactive

LINC02667 #2
- G2 robust z-score: -0.694
- G2 cells, % of GMNN control: -1.92
- Outcome: inactive

LINC02667 #3
- G2 robust z-score: 0.236
- G2 cells, % of GMNN control: 4.63
- Outcome: inactive

4 of these entries, reformatted.
{"Target gene":"HACD1","siRNA no.":2,"G2 robust z-score":-0.97,"G2 cells, % of GMNN control":-3.85,"Outcome":"inactive"}
{"Target gene":"HACD1","siRNA no.":3,"G2 robust z-score":-0.871,"G2 cells, % of GMNN control":-3.16,"Outcome":"inactive"}
{"Target gene":"LINC02667","siRNA no.":1,"G2 robust z-score":-0.29,"G2 cells, % of GMNN control":0.928,"Outcome":"inactive"}
{"Target gene":"LINC02667","siRNA no.":2,"G2 robust z-score":-0.694,"G2 cells, % of GMNN control":-1.92,"Outcome":"inactive"}

The results go on.
AP2A1 #1
- G2 robust z-score: 0.992
- G2 cells, % of GMNN control: 9.95
- Outcome: inactive

AP2A1 #2
- G2 robust z-score: 0.704
- G2 cells, % of GMNN control: 7.92
- Outcome: inactive

AP2A1 #3
- G2 robust z-score: 0.265
- G2 cells, % of GMNN control: 4.83
- Outcome: inactive

NRGN #1
- G2 robust z-score: -1.05
- G2 cells, % of GMNN control: -4.45
- Outcome: inactive

NRGN #2
- G2 robust z-score: -1.77
- G2 cells, % of GMNN control: -9.5
- Outcome: inactive

NRGN #3
- G2 robust z-score: -0.601
- G2 cells, % of GMNN control: -1.26
- Outcome: inactive

FBXL15 #1
- G2 robust z-score: -0.55
- G2 cells, % of GMNN control: -0.9
- Outcome: inactive

FBXL15 #2
- G2 robust z-score: 0.358
- G2 cells, % of GMNN control: 5.49
- Outcome: inactive

FBXL15 #3
- G2 robust z-score: 3.55
- G2 cells, % of GMNN control: 27.9
- Outcome: inactive
